According to the supplement of paper PMC12819154, “High-throughput peptide-centric local stability assay extends protein–ligand identification to membrane proteins, tissues and bacteria” (Nature Structural & Molecular Biology, 2025):
The list shows a part of the results. Most values lie at the level of the controls, where differences are scatter.

Chains of the proteins cited; added tags and fusions are not shown. Lines headed by an entry give the natural chain unless they say otherwise; changes in a name come on top.
UniProt Q96MN5: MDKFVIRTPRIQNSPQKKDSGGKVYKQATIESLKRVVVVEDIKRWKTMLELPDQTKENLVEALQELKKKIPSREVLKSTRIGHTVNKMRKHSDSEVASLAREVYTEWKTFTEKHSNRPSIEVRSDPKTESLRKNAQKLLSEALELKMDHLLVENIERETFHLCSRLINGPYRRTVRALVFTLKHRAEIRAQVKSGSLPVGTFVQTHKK
UniProt Q96PY5, whole entry: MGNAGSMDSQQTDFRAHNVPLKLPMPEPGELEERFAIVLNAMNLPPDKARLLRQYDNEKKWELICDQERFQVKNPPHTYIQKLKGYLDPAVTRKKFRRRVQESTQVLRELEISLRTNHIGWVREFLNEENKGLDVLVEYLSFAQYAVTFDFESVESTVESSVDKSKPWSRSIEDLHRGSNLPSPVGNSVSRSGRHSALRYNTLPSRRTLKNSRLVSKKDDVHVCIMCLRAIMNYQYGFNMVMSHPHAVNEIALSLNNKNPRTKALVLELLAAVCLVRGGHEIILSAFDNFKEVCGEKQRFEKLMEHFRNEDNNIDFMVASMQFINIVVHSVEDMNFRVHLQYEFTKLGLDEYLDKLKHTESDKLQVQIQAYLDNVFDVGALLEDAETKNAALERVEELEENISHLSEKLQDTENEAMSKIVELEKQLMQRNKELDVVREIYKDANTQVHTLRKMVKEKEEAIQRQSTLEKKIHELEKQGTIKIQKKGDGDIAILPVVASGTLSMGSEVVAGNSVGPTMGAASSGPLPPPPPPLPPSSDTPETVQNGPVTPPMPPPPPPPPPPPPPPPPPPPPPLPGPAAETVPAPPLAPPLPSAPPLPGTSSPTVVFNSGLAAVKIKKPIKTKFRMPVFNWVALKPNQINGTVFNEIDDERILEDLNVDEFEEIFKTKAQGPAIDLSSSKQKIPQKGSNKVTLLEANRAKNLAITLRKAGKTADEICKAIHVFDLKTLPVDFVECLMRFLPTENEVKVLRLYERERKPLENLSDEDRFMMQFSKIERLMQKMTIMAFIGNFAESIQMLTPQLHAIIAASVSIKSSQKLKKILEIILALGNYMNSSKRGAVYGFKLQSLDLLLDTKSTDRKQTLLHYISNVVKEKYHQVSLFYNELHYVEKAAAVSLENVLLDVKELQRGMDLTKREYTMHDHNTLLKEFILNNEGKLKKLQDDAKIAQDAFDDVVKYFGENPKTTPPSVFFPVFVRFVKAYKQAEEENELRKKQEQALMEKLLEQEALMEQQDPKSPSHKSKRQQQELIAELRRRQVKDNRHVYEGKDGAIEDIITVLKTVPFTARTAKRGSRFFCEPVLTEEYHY
UniProt Q96GV9: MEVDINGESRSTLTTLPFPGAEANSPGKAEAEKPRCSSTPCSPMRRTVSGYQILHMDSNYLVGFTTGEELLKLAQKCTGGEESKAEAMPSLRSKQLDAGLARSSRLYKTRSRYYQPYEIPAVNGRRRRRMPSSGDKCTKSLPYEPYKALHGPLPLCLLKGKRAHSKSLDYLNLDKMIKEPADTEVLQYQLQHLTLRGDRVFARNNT
UniProt Q96K37: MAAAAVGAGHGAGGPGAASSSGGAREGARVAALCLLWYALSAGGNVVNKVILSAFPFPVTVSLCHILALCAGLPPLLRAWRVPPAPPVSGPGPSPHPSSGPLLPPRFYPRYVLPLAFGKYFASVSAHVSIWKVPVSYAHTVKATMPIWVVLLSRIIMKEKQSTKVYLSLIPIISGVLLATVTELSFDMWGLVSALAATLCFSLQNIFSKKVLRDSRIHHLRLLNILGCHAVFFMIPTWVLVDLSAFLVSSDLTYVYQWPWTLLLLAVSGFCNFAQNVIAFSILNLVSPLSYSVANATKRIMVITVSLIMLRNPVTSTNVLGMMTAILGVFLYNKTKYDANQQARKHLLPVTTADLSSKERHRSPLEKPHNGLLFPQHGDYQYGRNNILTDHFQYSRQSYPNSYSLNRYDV
UniProt Q99439: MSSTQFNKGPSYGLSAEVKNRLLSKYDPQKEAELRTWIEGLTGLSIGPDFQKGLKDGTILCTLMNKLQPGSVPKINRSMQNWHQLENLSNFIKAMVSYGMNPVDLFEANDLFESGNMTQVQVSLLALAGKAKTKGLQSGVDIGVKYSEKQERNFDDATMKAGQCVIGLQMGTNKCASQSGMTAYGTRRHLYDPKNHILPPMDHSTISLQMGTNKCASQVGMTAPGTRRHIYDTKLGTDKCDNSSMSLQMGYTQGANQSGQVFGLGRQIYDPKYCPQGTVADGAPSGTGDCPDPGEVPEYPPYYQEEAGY
UniProt Q96NT1: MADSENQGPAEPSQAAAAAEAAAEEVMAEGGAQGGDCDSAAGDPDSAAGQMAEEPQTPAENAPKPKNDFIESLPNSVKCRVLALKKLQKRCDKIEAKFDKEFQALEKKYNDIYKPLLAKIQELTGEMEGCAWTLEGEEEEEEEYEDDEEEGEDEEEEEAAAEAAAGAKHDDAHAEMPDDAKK
UniProt Q96QC0: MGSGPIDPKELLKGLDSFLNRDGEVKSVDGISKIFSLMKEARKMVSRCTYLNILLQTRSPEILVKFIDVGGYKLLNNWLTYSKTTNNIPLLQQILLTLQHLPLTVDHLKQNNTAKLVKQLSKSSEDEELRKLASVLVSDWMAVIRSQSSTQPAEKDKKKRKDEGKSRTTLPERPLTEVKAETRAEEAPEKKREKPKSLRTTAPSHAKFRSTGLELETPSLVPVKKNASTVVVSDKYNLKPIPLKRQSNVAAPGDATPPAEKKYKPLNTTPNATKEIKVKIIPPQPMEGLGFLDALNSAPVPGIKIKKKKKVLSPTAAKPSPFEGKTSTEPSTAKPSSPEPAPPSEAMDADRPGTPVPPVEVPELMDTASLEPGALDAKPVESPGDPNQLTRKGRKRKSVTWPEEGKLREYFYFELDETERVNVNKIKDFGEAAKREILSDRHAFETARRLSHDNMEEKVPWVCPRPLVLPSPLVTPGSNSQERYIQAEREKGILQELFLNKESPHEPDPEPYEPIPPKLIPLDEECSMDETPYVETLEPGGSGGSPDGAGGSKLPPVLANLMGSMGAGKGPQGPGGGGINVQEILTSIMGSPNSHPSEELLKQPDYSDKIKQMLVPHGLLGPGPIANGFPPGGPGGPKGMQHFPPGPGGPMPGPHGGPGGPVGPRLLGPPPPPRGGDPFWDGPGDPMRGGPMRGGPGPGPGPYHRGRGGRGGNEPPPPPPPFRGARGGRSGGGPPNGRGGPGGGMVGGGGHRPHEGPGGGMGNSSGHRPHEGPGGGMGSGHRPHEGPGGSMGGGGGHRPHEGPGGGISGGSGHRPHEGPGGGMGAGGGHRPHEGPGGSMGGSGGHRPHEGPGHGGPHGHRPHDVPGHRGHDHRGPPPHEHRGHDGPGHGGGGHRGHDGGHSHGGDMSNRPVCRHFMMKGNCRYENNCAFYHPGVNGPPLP
UniProt Q96N64: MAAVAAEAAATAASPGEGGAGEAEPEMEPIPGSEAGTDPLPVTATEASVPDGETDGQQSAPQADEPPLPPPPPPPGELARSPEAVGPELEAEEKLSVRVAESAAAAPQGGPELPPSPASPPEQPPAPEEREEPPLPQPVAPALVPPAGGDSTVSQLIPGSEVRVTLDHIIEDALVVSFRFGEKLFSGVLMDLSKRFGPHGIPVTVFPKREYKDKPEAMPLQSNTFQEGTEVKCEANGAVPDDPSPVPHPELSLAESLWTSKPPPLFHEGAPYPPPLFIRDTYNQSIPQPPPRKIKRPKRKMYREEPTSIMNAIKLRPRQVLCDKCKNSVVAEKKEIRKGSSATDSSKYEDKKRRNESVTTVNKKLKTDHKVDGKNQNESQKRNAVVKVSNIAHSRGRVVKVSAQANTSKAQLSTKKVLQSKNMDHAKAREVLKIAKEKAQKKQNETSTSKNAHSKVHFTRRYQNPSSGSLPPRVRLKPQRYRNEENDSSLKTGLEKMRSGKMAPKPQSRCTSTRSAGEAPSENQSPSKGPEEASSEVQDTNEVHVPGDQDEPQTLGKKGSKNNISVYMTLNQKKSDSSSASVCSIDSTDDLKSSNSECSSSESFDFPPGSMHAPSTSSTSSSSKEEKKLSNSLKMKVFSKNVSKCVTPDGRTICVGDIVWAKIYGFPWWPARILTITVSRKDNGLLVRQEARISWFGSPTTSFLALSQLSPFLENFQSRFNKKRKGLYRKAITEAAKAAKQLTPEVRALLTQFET
UniProt Q96NA8: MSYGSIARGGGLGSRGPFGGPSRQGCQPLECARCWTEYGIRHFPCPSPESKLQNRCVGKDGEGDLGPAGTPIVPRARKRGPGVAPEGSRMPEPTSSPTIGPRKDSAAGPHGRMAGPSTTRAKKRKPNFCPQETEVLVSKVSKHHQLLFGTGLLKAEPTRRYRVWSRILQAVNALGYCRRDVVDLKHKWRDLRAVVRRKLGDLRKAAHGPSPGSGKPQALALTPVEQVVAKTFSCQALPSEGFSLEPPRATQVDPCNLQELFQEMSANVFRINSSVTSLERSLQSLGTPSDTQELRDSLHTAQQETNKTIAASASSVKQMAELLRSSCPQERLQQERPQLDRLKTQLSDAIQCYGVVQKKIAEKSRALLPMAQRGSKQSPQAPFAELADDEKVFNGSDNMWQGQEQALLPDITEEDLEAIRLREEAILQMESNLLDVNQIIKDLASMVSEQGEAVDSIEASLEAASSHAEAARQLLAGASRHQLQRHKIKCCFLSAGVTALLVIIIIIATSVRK
UniProt Q96TA2: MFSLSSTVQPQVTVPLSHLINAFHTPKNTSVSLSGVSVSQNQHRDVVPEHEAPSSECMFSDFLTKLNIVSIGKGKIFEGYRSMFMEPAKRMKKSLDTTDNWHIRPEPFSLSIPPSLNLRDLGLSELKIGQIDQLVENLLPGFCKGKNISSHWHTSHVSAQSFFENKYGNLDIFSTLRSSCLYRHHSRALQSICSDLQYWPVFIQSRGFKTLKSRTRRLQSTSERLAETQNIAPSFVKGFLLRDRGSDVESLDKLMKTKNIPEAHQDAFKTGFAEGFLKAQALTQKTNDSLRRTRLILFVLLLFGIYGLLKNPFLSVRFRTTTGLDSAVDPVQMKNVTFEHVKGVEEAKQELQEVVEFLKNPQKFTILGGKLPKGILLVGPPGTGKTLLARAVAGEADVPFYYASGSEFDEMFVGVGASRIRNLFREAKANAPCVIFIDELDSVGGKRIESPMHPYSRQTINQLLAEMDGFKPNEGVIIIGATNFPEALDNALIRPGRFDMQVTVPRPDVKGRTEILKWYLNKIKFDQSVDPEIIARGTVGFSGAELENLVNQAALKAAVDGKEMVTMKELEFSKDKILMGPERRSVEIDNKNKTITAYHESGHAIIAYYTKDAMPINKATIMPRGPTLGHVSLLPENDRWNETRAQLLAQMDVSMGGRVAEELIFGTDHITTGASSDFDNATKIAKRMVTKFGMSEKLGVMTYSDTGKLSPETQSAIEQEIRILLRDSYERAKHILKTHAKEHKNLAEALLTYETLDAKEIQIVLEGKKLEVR

compound: CN[C@@H]1C[C@H]2O[C@@](C)([C@@H]1OC)n1c3ccccc3c3c4c(c5c6ccccc6n2c5c31)C(=O)NC4 [staurosporine]; assay: log2 fold change of tryptic peptide abundance, ligand vs vehicle (limited proteolysis) (log2 ratio); higher = more trypsin-susceptible (destabilized); conditions: ligand concentration: 20 uM; sample: K562 cleared lysate; digestion: 4 min, 22 C (HT-PELSA RT4min, Orbitrap Astral)

| Target | log2 fold change |
| --- | --- |
| TCEANC2 (peptide sequence: IQNSPQKK, peptide start residue: 11) (UniProt Q96MN5) | 0.534 |
| FMNL2 (peptide sequence: RVQESTQVLR, peptide start residue: 113) (UniProt Q96PY5) | 0.876 |
| C5orf30 (peptide sequence: ALHGPLPLCLLK, peptide start residue: 148) (UniProt Q96GV9) | 0.318 |
| SLC35E1 (peptide sequence: QSYPNSYSLNR, peptide start residue: 397) (UniProt Q96K37) | -0.247 |
| CNN2 (peptide sequence: YDPQKEAELR, peptide start residue: 26) (UniProt Q99439) | 0.279 |
| NAP1L5 (peptide sequence: YNDIYKPLLAK, peptide start residue: 109) (UniProt Q96NT1) | 0.102 |
| PPP1R10 (peptide sequence: QSNVAAPGDATPPAEKK, peptide start residue: 246) (UniProt Q96QC0) | -0.148 |
| PWWP2A (peptide sequence: MYREEPTSIMNAIK, peptide start residue: 301) (UniProt Q96N64) | 0.44 |
| UniProt Q96NA8 (peptide sequence: ALLPMAQR, peptide start residue: 366) | 0.24 |
| YME1L1 (peptide sequence: LGVMTYSDTGK, peptide start residue: 698) (UniProt Q96TA2) | 0.412 |
